In paper PMC11787194:
Read-outs that look alike come from different tables or passages of the source. These are yes or no findings as the source states them, for the method shown. Binding seen in cells or lysates may run through a third protein. Some binding calls cover weakened binding; strength is not graded here.

Chains of the proteins cited; added tags and fusions are not shown.
UniProt Q9R0I6: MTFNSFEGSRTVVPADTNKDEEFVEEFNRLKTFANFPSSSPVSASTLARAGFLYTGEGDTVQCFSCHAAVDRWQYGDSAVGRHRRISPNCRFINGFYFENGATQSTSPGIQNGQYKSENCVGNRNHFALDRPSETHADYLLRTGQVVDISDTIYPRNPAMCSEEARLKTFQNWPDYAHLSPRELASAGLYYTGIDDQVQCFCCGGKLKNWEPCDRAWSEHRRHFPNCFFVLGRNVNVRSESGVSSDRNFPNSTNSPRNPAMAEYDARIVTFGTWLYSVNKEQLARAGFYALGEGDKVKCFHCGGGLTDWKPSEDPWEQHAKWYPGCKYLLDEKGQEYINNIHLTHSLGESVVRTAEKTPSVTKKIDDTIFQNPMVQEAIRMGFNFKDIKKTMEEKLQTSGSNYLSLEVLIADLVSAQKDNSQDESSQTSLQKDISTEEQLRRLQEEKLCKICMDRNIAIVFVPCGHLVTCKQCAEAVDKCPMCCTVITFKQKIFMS

Key:
[1] = target: T1, receptor-interacting protein 3 (RIP3) (rat (endogenous in CTX TNA2 astrocytes)) (UniProt Q9Z2P5); test: co-IP; cell lysates in IP buffer; anti-RIP3 antibody (1 ug) or normal IgG for 2 h at 4 °C, protein A/G agarose beads overnight at 4 °C; partners detected by immunoblot
T1 sequence: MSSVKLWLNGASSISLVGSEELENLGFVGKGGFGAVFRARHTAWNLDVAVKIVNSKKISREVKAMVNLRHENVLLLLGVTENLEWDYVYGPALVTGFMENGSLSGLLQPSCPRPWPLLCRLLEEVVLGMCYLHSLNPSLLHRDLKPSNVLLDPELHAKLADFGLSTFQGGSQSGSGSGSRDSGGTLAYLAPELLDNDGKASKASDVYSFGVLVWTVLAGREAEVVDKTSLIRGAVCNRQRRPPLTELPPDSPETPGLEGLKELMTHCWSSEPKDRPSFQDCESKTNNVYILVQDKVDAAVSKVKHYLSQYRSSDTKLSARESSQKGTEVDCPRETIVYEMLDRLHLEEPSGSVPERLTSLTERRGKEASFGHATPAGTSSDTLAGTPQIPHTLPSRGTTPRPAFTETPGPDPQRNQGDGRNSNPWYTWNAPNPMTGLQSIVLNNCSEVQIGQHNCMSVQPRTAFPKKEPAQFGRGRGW

[2] = target: T1, receptor-interacting protein 3 (RIP3) (rat (endogenous in CTX TNA2 astrocytes)); test: as above; remark: listed apart in the source

XIAP (from UniProt Q9R0I6 1-496)
binding [1]: no binding

p62 (from UniProt O08623 1-439)
binding [1]: binds

B1: RAG1 (protein, UniProt G3V6K9 1-1040)
chain: MAVPLPSTLRLSSAPDEIQHPHIKFSEWKFKLFRVRSFEKAPEEAQKEKDSSEGKPCLEQSPVVLDKPGGQNSVLTQRALKLHPKFSKKFHVDGKSSDKAIHQARLRHFCRICGNHFKSDGHNRRYPVHGPVDAKTQSLFRKKEKRVTSWPDLIARVFRIDVKSDVDSIHPTEFCHNCWSIMHRKFGSAHSQVYCPRNVTVEWHPHTPSCDICFTAHRGLKRKRHQPNVQLSKKLKTVLNHARRDRRKRTQARVSSKEVMKKISNCSKIHLSTKLLAVDFPAHFVKSISCQICEHILADPVETTCKHLFCRICILRCLKVMGSYCPSCRYPCFPTDLQSPVKSFLSILNSLMVKCPAQECNEEVSLEKYNHHVSSHKESKETLVHINKGGRPRQHLLSLTRRAQKHRLRELKIQVKEFADKEEGGDVKSVCLTLFLLALRARNEHRQADELEAIMQGRGSGLQPAVCLAIRVNTFLSCSQYHKMYRTVKAITGRQIFQPLHALRNAEKVLLPGYHPFEWQPPLKNVSSRTDVGIIDGLSGLASSVDEYPVDTIAKRFRYDSALVSALMDMEEDILDGMRSQDLDDYVSGPFTVVVKESCDGMGDVSEKHGSGPAVPEKAVRFSFTVMRVTVEHGSQNVKIFEEPKPNSELCCKPLCLMLADESDHETLTAILSPLIAEREAMKSSELLLEMGGIPRTFKFIFRGTGYDEKLVREVEGLEASGSVYICTLCDATRLEASQNLVFHSITRSHAENLQRYEVWRSNPYHESVEELRDRVKGVSAKPFIETVPSIDALHCDIGNAAEFYKIFQLEIGEVYKNPNASKEERKRWQATLDKHLRKRMNLKPIMRMNGNFARKLMTQETVDAVCELIPSEERHEALRELMDLYLKMKPVWRSSCPAKECPESLCQYSFNSQRFAELLSTKFKYRYEGKITNYFHKTLAHVPEIIERDGSIGAWASEGNESGNKLFRRFRKMNARQSKCYEMEDVLKHHWLYTSKYLQKFMNAHNALKNSGFTMNSKETLGDSLDIEDSLESQDSMEF
binding [2]: no binding
